{
  "source": "PubChem BioAssay (NCATS)",
  "key": {"[1]": {"assay": "qHTS assay for small molecule antagonists of peroxisome proliferator-activated receptor delta signaling (AID 588535);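 also: cells co-treated with a PPAR-delta agonist as stimulator during compound exposure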", "settings": "HEK293T PPARd-UAS-bla, beta-lactamase FRET ratio, 18 h; 460 nm channel"}, "[2]": {"assay": "qHTS assay for small molecule agonists of retinoid X receptor alpha signaling (AID 588544)", "settings": "HEK293T RXRa-UAS-bla, beta-lactamase reporter, 18 h; 530 nm emission"}, "[3]": {"assay": "qHTS assay for small molecule antagonists of retinoid X receptor alpha signaling (AID 588546);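 also: cells stimulated with 9-cis-retinoic acid as agonist; % is scaled to controls: 0 for no effect and ±100 for the full control effect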", "settings": "HEK293T RXRa-UAS-bla, beta-lactamase ratio, antagonist mode; measured here: W530 green channel, cytotoxicity proxy", "in_short": "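Beta-lactamase reporter inhibition, read as CCF4 fluorescence ratio (ex 405, em 460/530 nm) after 2 h at RT. HEK293T UAS-bla cells, 2500/well, were stimulated with 9-cis-RA at 500 or 100 nM final alongside test compound for 18 h at 37 C.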"}, "[4]": {"assay": "qHTS drug screen for cell cycle checkpoint inhibitors in PARPi-resistant BRCA-mutant ovarian cancer cell lines. (AID 1963452)", "settings": "PEO1/OlaR viability, CellTiter-Glo luminescence, 96 h, stronger effect = lower value", "from_the_text": "Women's Malignancies Branch, Center for Cancer Research (CCR),\nNational Cancer Institute (NCI), National Institutes of Health (NIH), Bethesda, MD\nPoly (ADP-ribose) polymerase inhibitors (PARPis) have changed the treatment paradigm in breast cancer gene (BRCA) - mutant high-grade serous ovarian carcinoma (HGSC). However, most patients eventually develop resistance to PARPis, highlighting an unmet need for improved therapeutic strategies. Using high-throughput drug screens, we identified ataxia telangiectasia and rad3-related protein/checkpoint kinase 1 (CHK1) pathway inhibitors as cytotoxic and further validated the activity of the CHK1 inhibitor (CHK1i) prexasertib in PARPi-sensitive and -resistant BRCA-mutant HGSC cells and xenograft mouse models. CHK1i monotherapy induced DNA damage, apoptosis, and tumor size reduction. We then conducted a phase 2 study (NCT02203513) of prexasertib in patients with BRCA-mutant HGSC. The treatment was well tolerated but yielded an objective response rate of 6% (1 of 17; one partial response) in patients with previous PARPi treatment. […] BRCA reversion mutation in previously PARPi-treated BRCA-mutant patients was not associated with resistance to CHK1i. […]\n6; Detection; Luminescence, PHERAstar (BMG Labtech) plate reader. […]\n6. Luminescence readings were taken using PHERAstar (BMG Labtech). […]"}, "[5]": {"assay": "qHTS for identification of novel therapeutic agents for treatment of microphthalmiaassociated transcription factor (MiT) renal cell carcinoma (RCC) (AID 1963991);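 also: curves scaled with 100% = DMSO viability and 0% = empty wells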", "settings": "TFE3-RCC UOK109 viability, CellTiter-Glo, 48 h, stronger effect = lower value", "from_the_text": "PI: Marston Linehan Ph.D.\nUrologic Oncology Branch, Center for Cancer Research (CCR)\nNational Cancer Institute (NCI), National Institute of Health (NIH), Bethesda, Maryland\nMiT-Renal Cell Carcinoma (RCC) is characterized by genomic translocations involving microphthalmia-associated transcription factor (MiT) family members TFE3, TFEB, or MITF. MiT-RCC represents a specific subtype of sporadic RCC that is predominantly seen in young patients and can present with heterogeneous histological features making diagnosis challenging. Moreover, the disease biology of this aggressive cancer is poorly understood and there is no accepted standard of care therapy for patients with advanced disease. Tumor-derived cell lines have been established from human TFE3-RCC providing useful models for preclinical studies. TFE3-RCC tumor derived cell lines and their tissues of origin were characterized by IHC and gene expression analyses. An unbiased high-throughput drug screen was performed to identify novel therapeutic agents for treatment of MiT-RCC. […] The results of a high-throughput small molecule drug screen utilizing three TFE3-RCC tumor-derived cell lines identified five classes of agents with potential pharmacological efficacy, including inhibitors of phosphoinositide-3-kinase (PI3K) and mechanistic target of rapamycin (mTOR), and several additional agents, including the transcription inhibitor Mithramycin A. Upregulation of the cell surface marker GPNMB, a specific MiT transcriptional target, was confirmed in TFE3-RCC and evaluated as a therapeutic target using the GPNMB-targeted antibody-drug conjugate CDX-011. […]\n6; Detection; Luminescence; ViewLux plate reader (PerkinElmer). […]\n1. Quantitative high-throughput screening (qHTS) of 1912 pharmacologically defined small molecule compounds was conducted on three TFE3-fusion cell lines bearing three different fusion partners (UOK109, UOK124, UOK145). […]\n4. Viability was assessed by adding 3uL of CellTiter-Glo detection reagent (Promega). […]\n6. Luminescence was measured on a ViewLux plate reader (PerkinElmer). […]"}},
  "note": "Several values for one entry are separate records, joined by “and”; a condition that tells them apart may be missing. Identical values can stand only once. Some of the results follow.",
  "data": [
    {"compound": "ClCCOP(OCCCl)OCCCl", "values": [
      {"measurement": "max response", "setting": "[1]", "value": 4.92, "unit": "%"},
      {"measurement": "max response", "setting": "[2]", "value": -18.7, "unit": "%"},
      {"measurement": "max response", "setting": "[3]", "value": -2.98, "unit": "%"}
    ]},
    {"compound": "O=[N+]([O-])c1ccccc1[N+](=O)[O-]", "values": [
      {"measurement": "max response", "setting": "[1]", "value": -33.9, "unit": "%"},
      {"measurement": "max response", "setting": "[3]", "value": 1.9, "unit": "%"}
    ]},
    {"compound": "CCOP(=O)(Cl)Cl", "values": [
      {"measurement": "max response", "setting": "[1]", "value": "14% and -34.7%"},
      {"measurement": "max response", "setting": "[2]", "value": "-0.493% and -13.6%"},
      {"measurement": "max response", "setting": "[3]", "value": -5.19, "unit": "%"}
    ]},
    {"compound": "CCOC(=O)C(=O)CBr", "values": [
      {"measurement": "Z-AUC", "setting": "[4]; measured here: PEO1 parental Z-AUC", "value": 0.611},
      {"measurement": "Z-AUC", "setting": "[4]; measured here: PEO4 Z-AUC", "value": 0.444},
      {"measurement": "z-score", "setting": "[5]; measured here: UOK109 Z-AUC", "value": 1},
      {"measurement": "z-score", "setting": "[5]; measured here: UOK124 Z-AUC", "value": 1.29},
      {"measurement": "z-score", "setting": "[5]; measured here: UOK145 Z-AUC", "value": -0.0696}
    ]}
  ]
}
